{"source": "patent US20230097801A1", "about": "“METHODS OF INCREASING CELL PHAGOCYTOSIS” (National Health Research Institutes, priority 2021, published 2023)", "test_system": "CD47", "assay": "Flow cytometry, anti-human CD47 CC2C6 antibody binding on Raji cell surface", "format": "cell-based", "conditions": "FIGS. 1A-1C and Table 2", "method": "Binding between CD47 and SIRPα was studied by measuring the level of CD47 binding using any suitable method. Flow cytometric analysis is useful to quantify the level of binding of CD47 to antibody CC2C6, which is then subjected to an immune-staining procedure using fluorochrome-conjugated secondary antibody followed by analysis of the immune-staining signal with a flow cytometry instrument to obtain the level of the CD47-CC2C6 binding. In another method, analysis of CD47 is performed using SIRPα-Fc formed from SIRPα fused with human IgG1, which is then subjected to an immune-staining procedure using fluorochrome-conjugated secondary antibody against human IgG1, followed by analysis of the immune-staining signal. SIRPα is expressed on the surface of a myeloid cell such as macrophage, monocyte, neutrophil, or dendritic cell. Alternatively, SIRPα is fused with human IgG1 to form a SIRPα-Fc recombinant protein. […] An anti-cancer agent (e.g., rituximab) can be used together with a compound of formula (I). Useful anti-cancer agents are described above including anti-PD-L1 antibodies, anti-CD20 antibodies, anti-HER2 antibodies, anti-EGFR antibodies, and anti-CD47 antibodies. Other suitable anti-cancer agents are chemotherapeutic agents such as doxorubicin, epirubicin, idarubicin, methotrexate, mitoxantrone, oxaliplatin, and cyclophosphamide. […]", "note": "Some of these results come from one statement about several compounds together."}
{"compound": "O=C1NC[C@H](c2ccc(-c3csc(C(F)(F)F)c3)c(F)c2F)N1c1ccc2[nH]cnc2c1", "note": "[Compound 34]", "values": [{"measurement": "IC50 fold lower than that of Comparative Compound PQ912", "value": "at least 3 fold"}]}
